Experimental data as given in PubChem BioAssay AID1508600 (Functional Genomics Laboratory (NCATS/FGL), 2020).
Out of some 53,000 sequences screened, about 3,700 (7%) were called active.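 Rule for the calls: active = gene knockdowns whose robust z-score for IL-1 alpha signal is at least 2 or at most -2, so actives lie on both sides; inactive = the rest.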 The list shows a part of the results.

experiment: Components of the Cytosolic LPS Sensing Pathway: Gene Identification via Genome-wide siRNA Screen; conditions: RAW264.7 macrophages, IL-1a HTRF, actives lie on both sides, screened at 100 nM (by protocol), cells primed 5 h with Pam3CSK4 first;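 note: robust z of the log signal after scaling to non-targeting control siRNA wells of the plate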
Procedure, shortened: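 Three distinct siRNAs per gene were tested singly at 100 nM in RAW264.7 macrophages. Following Pam3CSK4 priming and 24 hour LipidA transfection, IL-1a secretion was read by HTRF.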

Row | Sequence | z-score
1 | CCUAUAUUGAAUCUUCAACTT against Clptm1 | inactive: -0.726
2 | GGAUGAGAGUAAGAUCUCGTT against Vipr2 | inactive: -0.296
3 | CGUAAACUUAGGAAUUUUCTT against Ccdc66 | inactive: 1.86
4 | GGUCGUGCAUGACAACUAUTT against Itk | active: 2.62
5 | GGAACAUUCUGAGAAGAAATT against Cwf19l2 | inactive: -1.45
6 | AUUCAUUGGGAAAAAUUAUTT against Olfr127 | active: -2.38
7 | GAGUUGGCUCGAAACUGCCTT against Fbxl15 | active: 3.54
8 | GGCCUCUCAAAAUCUUCCUTT against Galnt11 | inactive: -1.46
9 | CCAUUCAAUGGUAACUGAATT against Olfr229 | inactive: -0.382
10 | CGCUUUAUUAGAUGGGCUATT against Dlx5 | active: -2.27
11 | GGAAAAUUCAGUUUAAUCCTT against Glt8d1 | inactive: 0.438
12 | GGCUUCAAUAGUUCUCCUATT against Rpl10 | inactive: 0.948
13 | GGAAAAGAACCAAAGAAUGTT against 5330439B14Rik | inactive: 0.738
14 | GGAAAUGAAAUAGUCUCGUTT against Dpm1 | inactive: 0.25
15 | GCCAGACACUUAAUCCCGUTT against Unc13d | inactive: 0.147
16 | GGGCUACACUUGCUGUACUTT against Gpc1 | inactive: 1.17
17 | CCUUAGGCUGACAUAAUAATT against Dnajb13 | inactive: 0.521
18 | GGAAAUUCUCUACUACUGATT against Unc5d | inactive: -1.65
19 | GGAACAUUUUGGAAAAGACTT against 1300017J02Rik | inactive: -0.0855
20 | GGAGAACUGUCAUAUGCUUTT against Cntn3 | inactive: -1.28
21 | GGGCUAGGUAGUGAUGGUCTT against Snrnp70 | inactive: -0.965
22 | GGAUGAACCACCAUAUGUGTT against Olfr1188 | active: 4.69

Row | Sequence | z-score
23 | CCAAAUUAUUCUUGCUUUCTT against Chp1 | inactive: 1.2
24 | GGAAAAGAAGAAGUCAGAATT against Clmn | inactive: 0.106
25 | GGAGACGAAUCCUUUCAGUTT against Mis12 | inactive: 0.476
26 | CCCAGCAAAUUCAUUCUACTT against Spon2 | inactive: 0.191
27 | GCCUUGUACUGUGUAUAUATT against Gse1 | inactive: -0.954
28 | CCUAGUAGCCGAGAAACAUTT against Olfr1137 | inactive: -0.705
29 | GGACUGUUACAAAUGAAGUTT against Cxcl1 | inactive: -0.454
30 | GGCACUUACACGUUUGGAATT against Cry1 | inactive: 0.561
31 | GGUUCAACGCAAAGUUCGCTT against Aldh4a1 | inactive: 0.347
32 | GGUGCACUGAAGAACUCCATT against Olfr1494 | inactive: -0.773
33 | GGUAAAUCCUCUACCGCAUTT against Pvr | inactive: 1.23
34 | GGACGGGCUUCUAGUUGAATT against Vmn1r189 | inactive: -0.948
35 | GGUUGGUCUCCAAAGAUGGTT against Kcnj1 | inactive: -1.34
36 | CUCUCCAGACUCCUAUGUATT against Olfr1118 | inactive: -1.06
37 | GGUUCCAAUUGGAUAUUUGTT against Cysltr2 | inactive: 1.68
38 | GGCCUUCGUCAUCUUCAAGTT against Snrpa | inactive: 1.05
39 | GGCCCUGCAUUAUCCGAAATT against Pla2g4b | inactive: 0.201
40 | GGUCAUUGCUAUUCCGUACTT against Olfr536 | inactive: 0.266
41 | GGGUCAACAUCAUCUAUGGTT against Olfr616 | inactive: -0.15
42 | GGAACUGAAUGCGGAAUUCTT against Chil1 | inactive: 0.261
43 | GCGGAGAAACAGGACAACATT against Prrx1 | inactive: 1.42
44 | CGUACAAGACAGGUCGGUCTT against Fbxw20 | inactive: 1.84

Reprinted: nos. 12 to 15
Row | Sequence | z-score
12 | GGCUUCAAUAGUUCUCCUATT against Rpl10 | inactive: 0.948
13 | GGAAAAGAACCAAAGAAUGTT against 5330439B14Rik | inactive: 0.738
14 | GGAAAUGAAAUAGUCUCGUTT against Dpm1 | inactive: 0.25
15 | GCCAGACACUUAAUCCCGUTT against Unc13d | inactive: 0.147

(cont.)

Row | Sequence | z-score
45 | GGAGACCUUCUGAAACUAATT against Zmym2 | inactive: 0.83
46 | CCGAGGUUUCAUAUUUCGGTT against Leng9 | inactive: -0.588
47 | GGAUGGGAUGAAAAUUGAATT against Papolg | inactive: -0.566
48 | GCUAUAUAAUGCUUAUGUGTT against Tpr | inactive: -0.501
49 | GCCCAGUUUGGUUAUGUAUTT against Yipf7 | inactive: 0.115
50 | CGGAGACACCUACAUAUGUTT against 9130019P16Rik | inactive: 1.27
51 | GGGAAUAAUGUCUAGUUUGTT against Fam126a | inactive: 0.215
52 | CCCAAACAACUUGUAAAUCTT against Cox20 | inactive: 0.31
53 | GGAUCUUGGAGAGAUUCAUTT against Bloc1s5 | inactive: 0.052
54 | GGAUGAAGUUCUUUUUCAATT against Pdcd11 | active: 2.28
55 | GCCCGGUAAAGGUAUCCAUTT against Trp53bp1 | inactive: 0.384
56 | GGGAAGUGCAUGCUCAUCUTT against Smarcal1 | inactive: -0.187
57 | GCUGUCCAAGUACGAGACATT against Atoh7 | inactive: 0.0721
58 | GCAAGUAAGCCUAAGGAAATT against Pcnp | inactive: 0.913
59 | GCAUUAAUGUGACAGCUACTT against Dhrs4 | inactive: 0.455
60 | GGCAACUGUGUUCUCACGATT against Ddx58 | inactive: -1.22
61 | GCAAUUAUCGUGGUAUCCUTT against Dgat1 | inactive: 0.49
62 | UGCUGUGCAGAAAGACUAGTT against Nkx2-6 | inactive: -1.95
63 | GCUUGAUAGGGAACUUAAUTT against Olfr805 | inactive: -1.57
64 | CGGGUUUAGGAGCAACCUUTT against Zdhhc4 | active: -3.02
65 | GACUUCAAACAAAUGGUGCTT against Lce1h | inactive: -0.454
66 | GCGAGUGAUUGAGGAUCCCTT against Trmt5 | inactive: 1.01

Row | Sequence | z-score
67 | GCUGAAGAGGCGCAUACAUTT against 2610318N02Rik | active: 3.07
68 | GGAUCAAUGUGUUCUCAUCTT against Cxcl5 | inactive: -0.0105
69 | GCUUGCUCUCAUCGGAGAUTT against Bak1 | inactive: 0.0521
70 | GGGAGAAACGCAUCUUAUCTT against Ngly1 | active: 2.38
71 | GGUGAAAUUCUGAAUGAAATT against Gatb | inactive: -0.0515
72 | GGAGAUGUUCCACAAGAAGTT against Cacna2d3 | inactive: 0.062
73 | GGAUAAAGUACUCCAUUAATT against Prr11 | inactive: -1.95
74 | GGUGAUGUGGAAAAAUGCATT against Sult1e1 | inactive: -0.483
75 | GCCAGUUAGAUGAAUUUCATT against Cop1 | inactive: -0.764
76 | GCAUGAAAAGGUAUUACUCTT against Exoc6 | inactive: 0.734
77 | CCGAUGGGAAAAUCCAGUUTT against B4galnt3 | inactive: -0.451
78 | GGUCGAAGUGAAACCAGUCTT against Pik3r2 | inactive: 0.731
79 | CGCAAUGUAUGAUUCAAUGTT against Mogat1 | inactive: 1.76
80 | GGACAUUCAUUCACCUUAUTT against Lipt2 | inactive: 0.154
81 | GCUCCUAAUGGAAAGAACGTT against Pla2g4d | inactive: 0.0914
82 | GGAUUUGAGUACAAGAAACTT against Tada2a | inactive: -0.523
83 | GGAAAAGGAAAUAAAAGAGTT against Hemgn | inactive: -1.15
84 | GCUGAAACCUCAUGAGGAGTT against Ptpn9 | inactive: 0.806
85 | GGAUACAAAUCAGGUUCUCTT against Kansl2 | inactive: 0.0399
86 | CCCGGUCUACAGUUAUUCGTT against Mnx1 | inactive: 1.95
87 | GGGAUGUCUUCCUAUACAGTT against Cope | active: -2.78
88 | CGUGGAGAGAUCAAUCCCGTT against Adad1 | active: -2.01

Row | Sequence | z-score
89 | GGAGUCAGUGACAAGGCUCTT against Olfr54 | inactive: 0.835
90 | GCGAGGGAUAGAAGUCGUGTT against Itpk1 | inactive: -0.732
91 | GGAAUUUAAGGUGUUCACATT against Lcn3 | inactive: -0.197
92 | GCACUGGAAUGUCAUCUCGTT against Casp3 | active: 2.9
93 | GGUAUUCCUUGCCAUUCGGTT against Stc1 | inactive: 1.8
94 | GGUCUUCAGUCCUGUACCATT against AY358078 | inactive: -0.0581
95 | GGACUUUGUGGAGAAUGUCTT against Cyp1a2 | inactive: -0.876
96 | GGCAGAACUUGCCGAGUAGTT against Tmem68 | inactive: -0.664
97 | GCUUCCUACAAUUAAUUCATT against Thap12 | inactive: 0.614
98 | GCACUUUGGGUUUAAGUACTT against Ndrg4 | active: 3.7
99 | GGUGCUUGAGAGACUGAUATT against Nes | inactive: 1.62
100 | GCCACUAUUGAAGCUUGCCTT against Olfr1209 | inactive: 1.32
101 | GGUUCGGCUCAUCUACCAATT against Tmub1 | inactive: 0.557
102 | GGCUGUAGUGAAGGUGUACTT against Parp3 | inactive: -0.414
103 | GCUCAAAGCAUUAACUUGUTT against Pbk | inactive: -0.0955
104 | GGAAGAAUACAAGUCUAGUTT against Pclo | inactive: 1.09
105 | GGUUAACAAAGGAAUAGCATT against B230354K17Rik | inactive: -1.23
106 | GGAAAGCUUGGACAUUAAGTT against Rps6kc1 | inactive: -0.0887
107 | CCUGAAGACACCAAGUUCATT against Pcp4 | inactive: -0.938

Shown field by field: part of the list above.
GCUAUAUAAUGCUUAUGUGTT against Tpr
  z-score: inactive: -0.501
GCCCAGUUUGGUUAUGUAUTT against Yipf7
  z-score: inactive: 0.115
